The target in this assay is METTL3 (mouse (endogenous in mRTECs)) (UniProt Q8C3P7). In words: co-IP; Pierce co-immunoprecipitation kit; IP with anti-METTL3 antibody from mRTECs, cells crosslinked before the immunoprecipitation; immune complexes treated with RNase for 5 min at 37°C; IgG antibody as control; Western blot. Background: In western blotting, separated proteins are transferred to a membrane and probed.

The chains behind the UniProt entries cited, without tags or fusion partners.
UniProt Q8C3P7: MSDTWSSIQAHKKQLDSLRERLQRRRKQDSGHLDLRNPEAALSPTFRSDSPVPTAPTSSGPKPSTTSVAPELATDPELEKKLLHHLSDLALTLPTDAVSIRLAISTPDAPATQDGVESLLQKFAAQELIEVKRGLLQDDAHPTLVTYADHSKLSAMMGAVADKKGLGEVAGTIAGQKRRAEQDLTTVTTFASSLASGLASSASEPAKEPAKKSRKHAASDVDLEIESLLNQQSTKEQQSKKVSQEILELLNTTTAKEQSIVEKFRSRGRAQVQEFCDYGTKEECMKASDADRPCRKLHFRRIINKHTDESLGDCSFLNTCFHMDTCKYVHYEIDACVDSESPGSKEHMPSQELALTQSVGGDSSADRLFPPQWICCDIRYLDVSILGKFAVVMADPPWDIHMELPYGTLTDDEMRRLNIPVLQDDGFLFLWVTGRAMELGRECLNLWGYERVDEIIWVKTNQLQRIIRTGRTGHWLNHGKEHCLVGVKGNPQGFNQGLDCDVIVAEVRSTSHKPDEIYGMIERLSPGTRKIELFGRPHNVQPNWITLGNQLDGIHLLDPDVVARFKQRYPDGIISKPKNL

These are yes or no findings as the source states them, for the method shown. Binding seen in cells or lysates may run through a third protein. Some entries that bind do so weakly or less than the wild type.

B1: DGCR8 (protein, UniProt Q9EQM6 1-773)
chain: METYESPSPLPREPAGEAMMENRACPFQVLPHEQSPPPPLQTSSDAEVMDVGSGGDGQSEPPADDPFNFYGASLLSKGSFSKGRLLIDPNCSGHSPRTARHAPAVRKFSPDLKLLKDVKISVSFTESCRSKDRKVLYTGVERSTRPECGQLLSPVSGDVHACPFGGSVGNGVGLGGESADKKDEENELDQEKRVEYAVLDELEDFTDNLELDEEGTGGFTAKAIVQRDRVDEEALNFSYEDDFDNDVDALLEEGLCAPKKRRMEEKYGGDSDHPSDGETSVQPMMTKIKTVLKSRGRPPTEPLPDGWIMTFHNSGVPVYLHRESRVVTWSRPYFLGTGSIRKHDPPLSSIPCLHYKKMKDNEEREQNCDLAPSGEVSPVKPLGRSAELDFPLEEPDSMGGDSGSMDEKDPLGAEAAAGALGQVKAKVEVCKDESVDLEEFRNYLEKRFDFEQVTVKKFRTWAERRQFNREMKRKQAESERPILPANQKLITLSVQDAPTKKEFVINPNGKSEVCILHEYMQRVLKVRPVYNFFECENPSEPFGASVTIDGVTYGSGTASSKKLAKNKAARATLEILIPDFVKQTSEEKPKDSEELEYFNHISIEDSRVYELTSKAGLLSPYQILHECLKRNHGMGDTSIKFEVVPGKNQKSEYVMACGKHTVRGWCKNKRVGKQLASQKILQLLHPHVKNWGSLLRMYGRESSKMVKQETSDKSVIELQQYAKKNRPNLHILSKLQEEMKRLAAEREETRKKPKMSIVASAQPGGEPLCTVDV
As for B1, the binding entry is reported as “binds”.
